From the supplement of paper PMC12067093, “Discovery and optimisation of a covalent ligand for TRIM25 and its application to targeted protein ubiquitination” (Chemical Science, 2025) come the findings set out here.

Sequences of proteins named here, by UniProt entry; tags and fusion partners are left off. A change or cut given only in a name is not applied to a line headed by its entry.
UniProt Q9H2Y7: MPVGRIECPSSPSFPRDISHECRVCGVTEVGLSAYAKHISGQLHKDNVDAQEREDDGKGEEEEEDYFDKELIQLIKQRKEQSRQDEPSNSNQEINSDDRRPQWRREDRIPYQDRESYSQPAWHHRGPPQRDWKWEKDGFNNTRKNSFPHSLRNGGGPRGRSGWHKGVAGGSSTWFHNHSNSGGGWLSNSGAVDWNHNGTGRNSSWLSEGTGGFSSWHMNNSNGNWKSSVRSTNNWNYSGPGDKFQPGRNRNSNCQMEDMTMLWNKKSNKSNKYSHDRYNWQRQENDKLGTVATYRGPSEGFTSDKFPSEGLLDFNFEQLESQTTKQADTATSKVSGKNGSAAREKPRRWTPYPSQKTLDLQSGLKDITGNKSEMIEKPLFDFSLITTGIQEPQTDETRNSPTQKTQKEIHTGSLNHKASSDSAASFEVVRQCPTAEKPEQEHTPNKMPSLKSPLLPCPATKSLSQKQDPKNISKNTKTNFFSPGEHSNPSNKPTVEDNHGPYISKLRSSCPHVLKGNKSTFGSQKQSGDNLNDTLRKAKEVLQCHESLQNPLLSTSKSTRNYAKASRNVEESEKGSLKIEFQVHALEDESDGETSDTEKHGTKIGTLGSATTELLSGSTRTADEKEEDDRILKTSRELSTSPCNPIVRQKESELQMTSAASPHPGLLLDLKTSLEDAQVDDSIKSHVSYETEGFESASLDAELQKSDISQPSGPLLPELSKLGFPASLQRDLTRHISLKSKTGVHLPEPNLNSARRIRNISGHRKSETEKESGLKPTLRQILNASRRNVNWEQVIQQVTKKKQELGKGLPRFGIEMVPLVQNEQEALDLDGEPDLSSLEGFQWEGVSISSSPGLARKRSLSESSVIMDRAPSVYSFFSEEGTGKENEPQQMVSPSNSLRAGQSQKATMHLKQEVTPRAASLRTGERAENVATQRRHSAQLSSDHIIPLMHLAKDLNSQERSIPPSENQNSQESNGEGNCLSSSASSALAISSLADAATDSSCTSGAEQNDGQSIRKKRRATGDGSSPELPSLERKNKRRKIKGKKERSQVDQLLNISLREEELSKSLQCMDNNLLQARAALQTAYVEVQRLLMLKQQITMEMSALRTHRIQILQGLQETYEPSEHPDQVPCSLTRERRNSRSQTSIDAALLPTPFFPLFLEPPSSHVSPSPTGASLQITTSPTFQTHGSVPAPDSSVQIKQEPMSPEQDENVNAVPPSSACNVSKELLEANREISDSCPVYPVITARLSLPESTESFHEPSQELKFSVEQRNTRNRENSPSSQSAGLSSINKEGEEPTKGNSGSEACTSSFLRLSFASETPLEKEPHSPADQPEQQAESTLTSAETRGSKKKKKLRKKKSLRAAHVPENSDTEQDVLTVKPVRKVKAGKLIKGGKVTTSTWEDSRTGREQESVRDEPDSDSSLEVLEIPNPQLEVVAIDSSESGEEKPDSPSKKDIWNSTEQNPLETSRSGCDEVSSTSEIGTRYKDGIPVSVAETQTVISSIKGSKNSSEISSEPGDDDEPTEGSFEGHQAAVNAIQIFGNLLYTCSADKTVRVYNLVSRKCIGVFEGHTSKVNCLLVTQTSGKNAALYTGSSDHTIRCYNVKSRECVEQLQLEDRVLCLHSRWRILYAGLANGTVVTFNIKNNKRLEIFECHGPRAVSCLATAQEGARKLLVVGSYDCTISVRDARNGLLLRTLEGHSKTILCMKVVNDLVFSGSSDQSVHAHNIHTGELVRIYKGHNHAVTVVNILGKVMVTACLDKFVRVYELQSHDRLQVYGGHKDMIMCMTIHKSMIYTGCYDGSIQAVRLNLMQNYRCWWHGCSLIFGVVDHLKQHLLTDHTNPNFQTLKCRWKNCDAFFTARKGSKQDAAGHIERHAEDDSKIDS

In this test the target is ZNF106_Q9H2Y7-2_7_CILCHIVYSSK (UniProt Q9H2Y7). Description: probe-labelled cysteine peptide fold change vs DMSO (competition) (log2 fold change); higher = less target engagement (more negative = stronger competition). To be noted: THP-1, incubation time: 4 h.

The list shows a part of the results.
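Note: competitive chemoproteomic profiling in live THP-1 cells with an iodoacetamide desthiobiotin (IA-DTB) probe, comparing probe-labelled peptide intensities in compound-treated cells against DMSO-treated controls.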

For the compound `CC1Cc2ccccc2N1C(=O)C1CCCN(C(=O)CCl)C1` (mixture of isomers) [TRIM25 ligand 11 (diastereomer mixture)], the “probe-labelled cysteine peptide fold change” value reads like this: (10 µM) -0.145; (50 µM) 0.00734.
